Measured data: PubChem BioAssay AID1508597 (Cure First, 2020)
Test: 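Knock-downs altering ovarian cancer cell survival with or without PARP inhibitor rucaparib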 (primary screen). Cells: human ovarian carcinoma lines grown from tumours: OCI-P5x (papillary serous) and OCI-C5x (clear cell). Reagent: siRNA pool against human genes, 1.25 pmol siRNA per well. Timing: 72 h or 96 h, depending on the cell culture. Conditions: rucaparib 20 µM (about IC30) or vehicle, present until read-out. Measured: 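ATP luminescence measured at 72 or 96 h according to the culture, then normalised and expressed as percent viability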. Reading the numbers: viability, normalised: higher = more viable cells remaining. Active means: 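a well counts as a hit if its normalised viability is under 80 percent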. Meaning of the calls: active = viability under 80%; inactive = viability 80% or more.
In all, the deposit lists about 2,100 reagents; this is a part drawn at random. 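Calls flag viability under 80% in either arm, not effects specific to rucaparib; the reference for percent is not stated.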 Some reagents were tested in more than one well and are listed for each. Not stated in the record: the 100% reference.

gene symbol	rucaparib or vehicle	cell line	technical replicate	viability, normalised (%)	Outcome
ALDOA	Rucaparib	OCI-C5x (clear cell)	1	40.2	active
ALDOA	Rucaparib	OCI-C5x (clear cell)	2	32.9	active
ALDOA	Rucaparib	OCI-C5x (clear cell)	3	35.6	active
ALDOA	Rucaparib	OCI-P5x (serous)	1	66.5	active
ALDOA	Rucaparib	OCI-P5x (serous)	2	64.8	active
ALDOA	Rucaparib	OCI-P5x (serous)	3	68.8	active
ALDOA	Vehicle	OCI-C5x (clear cell)	1	32.7	active
ALDOA	Vehicle	OCI-C5x (clear cell)	2	32.6	active
ALDOA	Vehicle	OCI-C5x (clear cell)	3	27	active
ALDOA	Vehicle	OCI-P5x (serous)	1	64.2	active
ALDOA	Vehicle	OCI-P5x (serous)	2	54.9	active
ALDOA	Vehicle	OCI-P5x (serous)	3	54.6	active
BRCC3	Rucaparib	OCI-C5x (clear cell)	1	59.5	active
BRCC3	Rucaparib	OCI-C5x (clear cell)	1	61	active
BRCC3	Rucaparib	OCI-C5x (clear cell)	2	57.2	active
BRCC3	Rucaparib	OCI-C5x (clear cell)	2	57.4	active
BRCC3	Rucaparib	OCI-C5x (clear cell)	3	58.6	active
BRCC3	Rucaparib	OCI-C5x (clear cell)	3	47.7	active
BRCC3	Rucaparib	OCI-P5x (serous)	1	61.3	active
BRCC3	Rucaparib	OCI-P5x (serous)	1	85.7	inactive
BRCC3	Rucaparib	OCI-P5x (serous)	2	56.8	active
BRCC3	Rucaparib	OCI-P5x (serous)	2	77.4	active
BRCC3	Rucaparib	OCI-P5x (serous)	3	71.6	active
BRCC3	Rucaparib	OCI-P5x (serous)	3	72.4	active
BRCC3	Vehicle	OCI-C5x (clear cell)	1	61.8	active
BRCC3	Vehicle	OCI-C5x (clear cell)	1	67.2	active
BRCC3	Vehicle	OCI-C5x (clear cell)	2	55.8	active
BRCC3	Vehicle	OCI-C5x (clear cell)	2	71.2	active
BRCC3	Vehicle	OCI-C5x (clear cell)	3	54.8	active
BRCC3	Vehicle	OCI-C5x (clear cell)	3	64.4	active
BRCC3	Vehicle	OCI-P5x (serous)	1	80.8	inactive
BRCC3	Vehicle	OCI-P5x (serous)	1	71.1	active
BRCC3	Vehicle	OCI-P5x (serous)	2	67.2	active
BRCC3	Vehicle	OCI-P5x (serous)	2	51	active
BRCC3	Vehicle	OCI-P5x (serous)	3	86.9	inactive
BRCC3	Vehicle	OCI-P5x (serous)	3	77.4	active
CLDN18	Rucaparib	OCI-C5x (clear cell)	1	51.2	active
CLDN18	Rucaparib	OCI-C5x (clear cell)	2	44.2	active
CLDN18	Rucaparib	OCI-C5x (clear cell)	3	53.6	active
CLDN18	Rucaparib	OCI-P5x (serous)	1	56.6	active
CLDN18	Rucaparib	OCI-P5x (serous)	2	71.4	active
CLDN18	Rucaparib	OCI-P5x (serous)	3	61.7	active
CLDN18	Vehicle	OCI-C5x (clear cell)	1	37.5	active
CLDN18	Vehicle	OCI-C5x (clear cell)	2	56.1	active
CLDN18	Vehicle	OCI-C5x (clear cell)	3	66.8	active
CLDN18	Vehicle	OCI-P5x (serous)	1	66.9	active
CLDN18	Vehicle	OCI-P5x (serous)	2	78.8	active
CLDN18	Vehicle	OCI-P5x (serous)	3	75	active
